Assay results: article PMC6993569

T1: GST-BGLF2 (Epstein-Barr virus) (UniProt P0CK53)
T1 sequence: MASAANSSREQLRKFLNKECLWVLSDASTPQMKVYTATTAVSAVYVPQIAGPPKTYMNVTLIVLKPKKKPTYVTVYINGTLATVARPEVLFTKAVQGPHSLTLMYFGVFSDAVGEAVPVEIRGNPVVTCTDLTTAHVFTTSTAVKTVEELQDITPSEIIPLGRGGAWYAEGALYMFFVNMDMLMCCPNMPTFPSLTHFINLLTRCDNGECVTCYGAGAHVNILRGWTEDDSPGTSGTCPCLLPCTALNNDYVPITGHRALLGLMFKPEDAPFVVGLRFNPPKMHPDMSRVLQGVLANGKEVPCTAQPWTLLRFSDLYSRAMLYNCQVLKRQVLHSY

T2: BGLF2-GFP (Epstein-Barr virus) (UniProt P0CK53)
T2 sequence: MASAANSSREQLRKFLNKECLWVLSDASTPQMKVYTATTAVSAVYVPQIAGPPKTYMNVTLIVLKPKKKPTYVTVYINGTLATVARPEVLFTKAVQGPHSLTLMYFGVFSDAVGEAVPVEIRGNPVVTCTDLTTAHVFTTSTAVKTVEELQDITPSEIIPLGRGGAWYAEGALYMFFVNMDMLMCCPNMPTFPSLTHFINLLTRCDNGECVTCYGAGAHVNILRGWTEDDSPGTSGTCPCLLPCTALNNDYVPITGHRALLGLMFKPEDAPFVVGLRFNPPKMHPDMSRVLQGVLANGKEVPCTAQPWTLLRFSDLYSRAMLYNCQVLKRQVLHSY


Legend:
[1] = molecular target: T1, GST-BGLF2 (Epstein-Barr virus); test: pull-down; His-BBLF1 mixed with GST or GST-BGLF2 in PBS with 1% NP40; glutathione (GST)-Sepharose beads, 4°C 1.5 h; washed with PBS with 1% NP40; blot with anti-His and anti-GST; both purified
[2] = molecular target: T2, BGLF2-GFP (Epstein-Barr virus); test: co-IP; HEK293T cells cotransfected, 48 h; lysate in PBS with 1% Triton X-100; precipitated with GFP-Trap (BGLF2-GFP as bait); blot with anti-Flag
[3] = molecular target: BBLF1-Flag (Epstein-Barr virus); test: co-IP; HEK293T cells cotransfected, 48 h; lysate in PBS with 1% Triton X-100; immunoprecipitated with anti-Flag antibody (BBLF1-Flag or its mutants as bait), 4°C 1 h, protein-A/G agarose; blot with anti-GFP
[4] = molecular target: BBLF1-GFP (Epstein-Barr virus); test: co-IP; 293T cells cotransfected with BBLF1-GFP and V5-BGLF2, its deletion mutants or 3KA, 48 h; precipitated with GFP-Trap (BBLF1-GFP as bait); blot with anti-GFP and anti-V5
[5] = molecular target: His-BBLF1 (Epstein-Barr virus); test: pull-down; His-BBLF1 mixed with GST or GST-BGLF2 in PBS with 1% NP40; Ni-NTA beads, 4°C 1.5 h; washed with PBS with 1% NP40 and 0.2 M imidazole; blot with anti-His and anti-GST; both purified

| Molecule | binding [4] | other results |
| --- | --- | --- |
| His-BBLF1 (Epstein-Barr virus) | – | binding [1]: binds |
| BBLF1-Flag (Epstein-Barr virus) | – | binding [2]: binds |
| BGLF2-GFP (protein, UniProt P0CK53 1-336) MASAANSSREQLRKFLNKECLWVLSDASTPQMKVYTATTAVSAVYVPQIAGPPKTYMNVTLIVLKPKKKPTYVTVYINGTLATVARPEVLFTKAVQGPHSLTLMYFGVFSDAVGEAVPVEIRGNPVVTCTDLTTAHVFTTSTAVKTVEELQDITPSEIIPLGRGGAWYAEGALYMFFVNMDMLMCCPNMPTFPSLTHFINLLTRCDNGECVTCYGAGAHVNILRGWTEDDSPGTSGTCPCLLPCTALNNDYVPITGHRALLGLMFKPEDAPFVVGLRFNPPKMHPDMSRVLQGVLANGKEVPCTAQPWTLLRFSDLYSRAMLYNCQVLKRQVLHSY | – | binding [3]: binds |
| V5-BGLF2 (protein, UniProt P0CK53 1-336) MASAANSSREQLRKFLNKECLWVLSDASTPQMKVYTATTAVSAVYVPQIAGPPKTYMNVTLIVLKPKKKPTYVTVYINGTLATVARPEVLFTKAVQGPHSLTLMYFGVFSDAVGEAVPVEIRGNPVVTCTDLTTAHVFTTSTAVKTVEELQDITPSEIIPLGRGGAWYAEGALYMFFVNMDMLMCCPNMPTFPSLTHFINLLTRCDNGECVTCYGAGAHVNILRGWTEDDSPGTSGTCPCLLPCTALNNDYVPITGHRALLGLMFKPEDAPFVVGLRFNPPKMHPDMSRVLQGVLANGKEVPCTAQPWTLLRFSDLYSRAMLYNCQVLKRQVLHSY | binds | – |
| GST-BGLF2 (protein, UniProt P0CK53 1-336) MASAANSSREQLRKFLNKECLWVLSDASTPQMKVYTATTAVSAVYVPQIAGPPKTYMNVTLIVLKPKKKPTYVTVYINGTLATVARPEVLFTKAVQGPHSLTLMYFGVFSDAVGEAVPVEIRGNPVVTCTDLTTAHVFTTSTAVKTVEELQDITPSEIIPLGRGGAWYAEGALYMFFVNMDMLMCCPNMPTFPSLTHFINLLTRCDNGECVTCYGAGAHVNILRGWTEDDSPGTSGTCPCLLPCTALNNDYVPITGHRALLGLMFKPEDAPFVVGLRFNPPKMHPDMSRVLQGVLANGKEVPCTAQPWTLLRFSDLYSRAMLYNCQVLKRQVLHSY | – | binding [5]: binds |
| V5-BGLF2 with the C-terminal region deleted from aa 328 to 336 (domain or fragment, UniProt P0CK53 1-328) MASAANSSREQLRKFLNKECLWVLSDASTPQMKVYTATTAVSAVYVPQIAGPPKTYMNVTLIVLKPKKKPTYVTVYINGTLATVARPEVLFTKAVQGPHSLTLMYFGVFSDAVGEAVPVEIRGNPVVTCTDLTTAHVFTTSTAVKTVEELQDITPSEIIPLGRGGAWYAEGALYMFFVNMDMLMCCPNMPTFPSLTHFINLLTRCDNGECVTCYGAGAHVNILRGWTEDDSPGTSGTCPCLLPCTALNNDYVPITGHRALLGLMFKPEDAPFVVGLRFNPPKMHPDMSRVLQGVLANGKEVPCTAQPWTLLRFSDLYSRAMLYNCQVL | binds | – |
| V5-BGLF2 with the C-terminal region deleted from aa 300 to 336 (domain or fragment, UniProt P0CK53 1-300) MASAANSSREQLRKFLNKECLWVLSDASTPQMKVYTATTAVSAVYVPQIAGPPKTYMNVTLIVLKPKKKPTYVTVYINGTLATVARPEVLFTKAVQGPHSLTLMYFGVFSDAVGEAVPVEIRGNPVVTCTDLTTAHVFTTSTAVKTVEELQDITPSEIIPLGRGGAWYAEGALYMFFVNMDMLMCCPNMPTFPSLTHFINLLTRCDNGECVTCYGAGAHVNILRGWTEDDSPGTSGTCPCLLPCTALNNDYVPITGHRALLGLMFKPEDAPFVVGLRFNPPKMHPDMSRVLQGVLANGKE | binds | – |
| V5-BGLF2 with the C-terminal region deleted from aa 155 to 336 (domain or fragment, UniProt P0CK53 1-155) MASAANSSREQLRKFLNKECLWVLSDASTPQMKVYTATTAVSAVYVPQIAGPPKTYMNVTLIVLKPKKKPTYVTVYINGTLATVARPEVLFTKAVQGPHSLTLMYFGVFSDAVGEAVPVEIRGNPVVTCTDLTTAHVFTTSTAVKTVEELQDITP | binds | – |

No constants are given. Whether binding was seen depends on the method and setting. A result given as binding can be weak or reduced; the word gives no strength. Tags and fused reporters may be left off the sequences shown. For some assays here: In cells and extracts the contact can be indirect.
